Experimental data: PubChem BioAssay AID1259308 (NCATS, 2017)
This is a random part of about 59,000 reagents tested. About 1,510 of them (2.6%) count as active. 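Calls use total luciferase alone and ignore viability, so some active siRNAs may act by altering cell number.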 The numbers tell different reagents against one gene apart.

- Screen: 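Genes whose loss raises luciferase production in HEK293 cells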 (primary screen)
- Cells: human HEK293 embryonic kidney cells stably expressing firefly luciferase (HEK-CMV-Luc2-Hygro)
- Reagent: single siRNA against human genes, 0.8 pmol siRNA per well
- Time to read-out: 72 h
- Measured: 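Reporter luminescence and viable-cell signal on separate replicate plates, given as percent of non-targeting control and median/MAD z-scores, plus per-cell luciferase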
- Reading the numbers: total luciferase, z-score and total luciferase, % of control: higher = more reporter protein produced; luciferase per cell, z-score: higher = more reporter output per viable cell; viable cells, % of control: higher = more viable cells
- Call rule: 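Active when the median/MAD z-score for overall luciferase is greater than 3; a gene was taken forward for validation with new siRNAs if at least two of its three siRNAs passed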
- Meaning of the calls: active = raised luciferase; inactive = no rise

The opening 6 records, ahead of the listing:
gene symbol	reagent no.	total luciferase, z-score	total luciferase, % of control	luciferase per cell, z-score	viable cells, % of control	outcome
ODAD4 (outer dynein arm docking complex subunit 4)	1	0.436	90.6	1.27	72.4	inactive
ODAD4 (outer dynein arm docking complex subunit 4)	2	0.153	84.9	0.111	92.2	inactive
ODAD4 (outer dynein arm docking complex subunit 4)	3	3.05	143	2.85	75.3	active
PTPRH (protein tyrosine phosphatase receptor type H)	1	0.824	98.3	0.468	97.1	inactive
PTPRH (protein tyrosine phosphatase receptor type H)	2	-1.87	44.6	-2	84.5	inactive
PTPRH (protein tyrosine phosphatase receptor type H)	3	-0.858	64.8	-0.644	85.8	inactive

Results, repeating the preview:
gene symbol	reagent no.	total luciferase, z-score	total luciferase, % of control	luciferase per cell, z-score	viable cells, % of control	outcome
ODAD4 (outer dynein arm docking complex subunit 4)	1	0.436	90.6	1.27	72.4	inactive
ODAD4 (outer dynein arm docking complex subunit 4)	2	0.153	84.9	0.111	92.2	inactive
ODAD4 (outer dynein arm docking complex subunit 4)	3	3.05	143	2.85	75.3	active
PTPRH (protein tyrosine phosphatase receptor type H)	1	0.824	98.3	0.468	97.1	inactive
PTPRH (protein tyrosine phosphatase receptor type H)	2	-1.87	44.6	-2	84.5	inactive
PTPRH (protein tyrosine phosphatase receptor type H)	3	-0.858	64.8	-0.644	85.8	inactive
TAS2R20 (taste 2 receptor member 20)	1	0.407	90	0.617	85.5	inactive
TAS2R20 (taste 2 receptor member 20)	2	0.336	88.6	0.262	92.4	inactive
TAS2R20 (taste 2 receptor member 20)	3	1.28	107	0.798	97.2	inactive
ECH1 (enoyl-CoA hydratase 1)	1	1.21	106	1.29	84.2	inactive
ECH1 (enoyl-CoA hydratase 1)	2	1.82	118	1.16	97.1	inactive
ECH1 (enoyl-CoA hydratase 1)	3	-0.0595	80.7	-0.68	108	inactive
TUBA3C-DT (TUBA3C divergent transcript)	1	-1.53	51.5	-0.00422	57.6	inactive
TUBA3C-DT (TUBA3C divergent transcript)	2	0.08	83.5	0.291	86.4	inactive
TUBA3C-DT (TUBA3C divergent transcript)	3	-1.6	50	-0.169	58.4	inactive
TAS2R16 (taste 2 receptor member 16)	1	1.76	117	2.46	68.4	inactive
TAS2R16 (taste 2 receptor member 16)	2	-0.617	69.6	-0.135	80.6	inactive
TAS2R16 (taste 2 receptor member 16)	3	-0.524	71.5	-0.375	88.1	inactive
C4orf51 (chromosome 4 open reading frame 51)	1	0.35	88.8	0.122	96.1	inactive
C4orf51 (chromosome 4 open reading frame 51)	2	-0.23	77.3	-0.621	102	inactive
C4orf51 (chromosome 4 open reading frame 51)	3	-0.292	76.1	-0.811	105	inactive
B4GALT2 (beta-1,4-galactosyltransferase 2)	1	-0.381	74.3	-0.612	97.6	inactive
B4GALT2 (beta-1,4-galactosyltransferase 2)	2	-0.0875	80.1	-0.494	102	inactive
B4GALT2 (beta-1,4-galactosyltransferase 2)	3	-0.545	71	-0.549	91.7	inactive
MAP4K4 (mitogen-activated protein kinase kinase kinase kinase 4)	1	-0.0979	79.9	0.0741	87.6	inactive
MAP4K4 (mitogen-activated protein kinase kinase kinase kinase 4)	2	2.48	131	1.59	96.4	inactive
MAP4K4 (mitogen-activated protein kinase kinase kinase kinase 4)	3	0.817	98.1	0.332	100	inactive
FNDC1 (fibronectin type III domain containing 1)	1	-0.944	63.1	-0.614	82.9	inactive
FNDC1 (fibronectin type III domain containing 1)	2	0.651	94.8	0.17	101	inactive
FNDC1 (fibronectin type III domain containing 1)	3	0.959	101	0.232	106	inactive
STX4 (syntaxin 4)	1	-0.0236	81.4	-0.181	95.4	inactive
STX4 (syntaxin 4)	2	0.184	85.5	0.375	86.6	inactive
STX4 (syntaxin 4)	3	0.355	88.9	-0.0176	99.8	inactive
REX1BD (required for excision 1-B domain containing)	1	-0.674	68.5	-1.02	100	inactive
REX1BD (required for excision 1-B domain containing)	2	0.709	96	0.248	100	inactive
REX1BD (required for excision 1-B domain containing)	3	0.431	90.5	1.47	68.6	inactive
PSMC2 (proteasome 26S subunit, ATPase 2)	1	-0.00782	81.7	2.87	42.9	inactive
PSMC2 (proteasome 26S subunit, ATPase 2)	2	0.362	89.1	3.97	35	inactive
PSMC2 (proteasome 26S subunit, ATPase 2)	3	-1.27	56.5	2.8	30.2	inactive
RNASE3 (ribonuclease A family member 3)	1	1.42	110	1.1	92	inactive
RNASE3 (ribonuclease A family member 3)	2	-0.76	66.8	-1.66	115	inactive
RNASE3 (ribonuclease A family member 3)	3	0.108	84	-0.244	100	inactive
ZNF117 (zinc finger protein 117)	1	0.721	96.2	1.24	77.6	inactive
ZNF117 (zinc finger protein 117)	2	0.962	101	2.05	65.7	inactive
ZNF117 (zinc finger protein 117)	3	-0.141	79.1	-0.647	105	inactive
ZNF354A (zinc finger protein 354A)	1	1.26	107	0.799	96.9	inactive
ZNF354A (zinc finger protein 354A)	2	0.16	85.1	0.198	90.2	inactive
ZNF354A (zinc finger protein 354A)	3	0.838	98.6	-0.163	115	inactive
MYH2 (myosin heavy chain 2)	1	-2.16	39	-1.21	59.9	inactive
MYH2 (myosin heavy chain 2)	2	0.671	95.2	1.07	80.2	inactive
MYH2 (myosin heavy chain 2)	3	-0.49	72.1	0.0287	80	inactive
CACFD1 (calcium channel flower domain containing 1)	1	0.23	86.5	0.12	93.6	inactive
CACFD1 (calcium channel flower domain containing 1)	2	0.548	92.8	0.0427	103	inactive
CACFD1 (calcium channel flower domain containing 1)	3	3.71	156	2.38	93	active
MACROD1 (mono-ADP ribosylhydrolase 1)	1	1.31	108	0.858	96.3	inactive
MACROD1 (mono-ADP ribosylhydrolase 1)	2	1.31	108	0.733	99.4	inactive
MACROD1 (mono-ADP ribosylhydrolase 1)	3	3.47	151	2.44	88.6	active
